Screening data, single-dose tests

The chains behind the UniProt entries cited, without tags or fusion partners. Residues count along the entry.
UniProt P9WNZ1, whole entry: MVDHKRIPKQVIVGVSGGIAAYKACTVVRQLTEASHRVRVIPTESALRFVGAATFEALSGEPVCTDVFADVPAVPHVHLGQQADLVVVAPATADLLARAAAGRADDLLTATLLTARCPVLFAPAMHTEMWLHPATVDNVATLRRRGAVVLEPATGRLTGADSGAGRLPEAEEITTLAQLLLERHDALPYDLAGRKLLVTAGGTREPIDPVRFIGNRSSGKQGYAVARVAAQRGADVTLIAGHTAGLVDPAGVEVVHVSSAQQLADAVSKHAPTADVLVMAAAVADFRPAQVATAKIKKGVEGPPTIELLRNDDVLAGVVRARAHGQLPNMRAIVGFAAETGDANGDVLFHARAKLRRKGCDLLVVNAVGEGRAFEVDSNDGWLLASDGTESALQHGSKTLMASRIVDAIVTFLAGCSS
UniProt Q8IDJ8, 1-583: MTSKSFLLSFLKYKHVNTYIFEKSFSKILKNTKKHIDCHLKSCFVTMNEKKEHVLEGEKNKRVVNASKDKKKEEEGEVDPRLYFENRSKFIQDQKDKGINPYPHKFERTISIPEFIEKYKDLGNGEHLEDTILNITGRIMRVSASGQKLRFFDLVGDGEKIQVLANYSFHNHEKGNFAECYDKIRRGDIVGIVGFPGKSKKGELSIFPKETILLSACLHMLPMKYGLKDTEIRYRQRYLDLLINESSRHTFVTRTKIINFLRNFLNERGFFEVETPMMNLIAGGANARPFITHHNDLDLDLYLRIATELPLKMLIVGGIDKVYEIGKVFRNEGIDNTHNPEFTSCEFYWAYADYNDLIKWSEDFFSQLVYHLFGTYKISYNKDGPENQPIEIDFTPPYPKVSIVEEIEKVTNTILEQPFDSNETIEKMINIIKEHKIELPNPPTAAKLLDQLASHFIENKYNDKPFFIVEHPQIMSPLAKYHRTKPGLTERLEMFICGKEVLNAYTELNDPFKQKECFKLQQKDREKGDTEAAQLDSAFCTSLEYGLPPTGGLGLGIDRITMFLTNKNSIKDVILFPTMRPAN
UniProt A4I591, 1-473: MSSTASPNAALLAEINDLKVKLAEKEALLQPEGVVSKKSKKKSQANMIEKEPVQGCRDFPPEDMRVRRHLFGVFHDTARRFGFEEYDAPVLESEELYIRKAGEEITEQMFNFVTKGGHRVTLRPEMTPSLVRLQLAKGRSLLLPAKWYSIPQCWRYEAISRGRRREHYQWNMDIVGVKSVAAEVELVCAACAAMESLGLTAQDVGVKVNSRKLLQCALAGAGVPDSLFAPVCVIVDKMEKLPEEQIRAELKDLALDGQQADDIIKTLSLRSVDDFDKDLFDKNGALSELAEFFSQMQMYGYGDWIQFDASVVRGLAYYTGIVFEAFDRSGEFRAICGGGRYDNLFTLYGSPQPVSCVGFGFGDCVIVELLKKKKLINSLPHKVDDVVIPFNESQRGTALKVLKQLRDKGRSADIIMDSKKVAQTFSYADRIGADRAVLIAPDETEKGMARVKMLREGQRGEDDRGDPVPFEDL

Data taken from ChEMBL document CHEMBL3988442, “University of Dundee, Small-Polar-MMV Screening Library” (2021).

CoaBC: 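Enzyme assay of CoaBC with a phosphate dye (Biomol Green) read at 650 nm. Target: Coenzyme A biosynthesis protein CoaBC, Mycobacterium tuberculosis (UniProt P9WNZ1). Tested at 30 µM. Higher reads as stronger inhibition, judged from the few compounds that gave an IC50. Most strong results did not repeat in a second test. About 67,000 compounds were tested under these conditions; 0.06% (about 40) showed 50% or more at least once.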
PfKRS1: 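Lysine-tRNA ligase, Plasmodium falciparum 3D7 (UniProt Q8IDJ8). Enzyme assay of the cytosolic lysyl-tRNA synthetase in 384-well plates, read by luminescence. Tested at 30 µM. Direction is inferred from only a few compounds that gave an IC50; most scored high, so higher reads as stronger inhibition. Of about 69,000 compounds tested this way, about 49 (0.071%) reached 50% or more in at least one test.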
LiHisRS: 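Histidine-tRNA ligase, Leishmania infantum (UniProt A4I591). Enzyme assay of histidyl-tRNA synthetase; the read-out is not stated. Concentration: 30 µM. The record gives no direction; compounds that gave an IC50 in retests scored well above the rest, so higher reads as stronger inhibition. The assay is labelled LdHisRS but filed under L. infantum. Size under these conditions: about 69,000 compounds, about 410 of them at 50% or above in at least one test.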

Values are the deposited “Percent Effect”, in %. The record does not define 0% and 100%; most values in the screen are far below 50% and negative numbers occur (in some assays of this library far below -100). The compounds are a random part of those screened.

compound: COCCC1(C(=O)O)CCCN(CC(=O)NCCc2ccccc2)C1 (stereo unspecified)
CoaBC: -0.9615%
PfKRS1: -4.015%
LiHisRS: -6.25%

compound: CN(Cc1cnn(C)c1)C(=O)CCc1ccc2c(c1)OCO2
CoaBC: 1.921%
PfKRS1: 7.604%
LiHisRS: 2.469%

compound: Cc1nc(COCC2CN(C(=O)N(C)C)Cc3nccn3C2)cs1 (stereo unspecified)
CoaBC: 0%
PfKRS1: 2.735%
LiHisRS: 3.774%

compound: CN(C)C(=O)CN(C)C(=O)c1csc(Br)c1
CoaBC: 4.826%
PfKRS1: 5.142%
LiHisRS: 0%

compound: CC(Cn1cc(Cl)cn1)C(=O)Nc1ccc(CN2CCCCCC2)cc1 (stereo unspecified)
CoaBC: 3.883%
PfKRS1: -2.866%
LiHisRS: -4.286%

compound: O=C(c1cscn1)N1CC[C@H]2C[C@H](c3nnc(C4CC4)o3)O[C@@H]2C1
CoaBC: 4.938%
PfKRS1: 1.269%
LiHisRS: 2.727%

compound: CN1CCC(c2cccc(-c3ccc(C(=O)O)cc3)n2)CC1
CoaBC: -2.797%
PfKRS1: 0.7323%
LiHisRS: 7.092%

compound: CC(C)c1nc(C2CCCN2CC(=O)N2CCc3ccccc32)no1 (stereo unspecified)
CoaBC: -1.596%
PfKRS1: -5.397%
LiHisRS: 12%

compound: Cc1cncc(C(=O)N2CCN(c3cnn(C)c(=O)c3)CC2)c1
CoaBC: -5.122%
PfKRS1: 3.181%
LiHisRS: 16%

compound: O=C(NCc1ccco1)N1CCC(n2ccc(C(F)(F)F)n2)CC1
CoaBC: 4.738%
PfKRS1: 1.544%
LiHisRS: 17.28%

compound: Cc1cnn(CC(C)Nc2nc3ccccc3o2)c1 (stereo unspecified)
CoaBC: 1.734%
PfKRS1: -2.709%
LiHisRS: 17.86%

compound: CCOCC1CN(C(=O)c2ccco2)Cc2cnn(CC)c21 (stereo unspecified)
CoaBC: -0.6085%
PfKRS1: -0.5512%
LiHisRS: -0.9174%

compound: CS(=O)(=O)N1CC[C@H]2[C@H](C[C@@H](Cn3cncn3)N2CC2CC2)C1
CoaBC: 5%
PfKRS1: 5.625%
LiHisRS: 14.15%

compound: O=C(Cc1ccc2c(c1)CCO2)N1CCCC(n2cccn2)C1 (stereo unspecified)
CoaBC: -1.512%
PfKRS1: 0.1255%
LiHisRS: -4.959%

compound: N#Cc1cc(F)c(NCCCOCC2CCOC2)c(F)c1 (stereo unspecified)
CoaBC: 9.13%
PfKRS1: -2.137%
LiHisRS: 1.571%

compound: CCSc1nnc([C@@H](N)CC(C)C)o1
CoaBC: -5.063%
PfKRS1: 0.6868%
LiHisRS: 2.083%

compound: Cc1cc(C)nc(CCNc2nccc(CCC(F)(F)F)n2)n1
CoaBC: 16.34%
PfKRS1: -2.424%
LiHisRS: 12.28%

compound: O=C(Nc1cc(F)ccc1OCC1CCCO1)N1CCCC1 (stereo unspecified)
CoaBC: 3.855%
PfKRS1: 5.136%
LiHisRS: 13.7%

compound: COc1cccc(-c2nc(CNCCc3cccnc3)cs2)c1
CoaBC: 0.86%
PfKRS1: -1.601%
LiHisRS: 10.85%

compound: CN1CCc2ncc(CNc3cc(N(C)C)ncn3)n2CC1
PfKRS1: -0.7831%
LiHisRS: 20.51%

compound: Cc1nc(C)n(CCCNc2ncnc(C)c2C)n1
CoaBC: 0.7212%
PfKRS1: 4.466%
LiHisRS: 10.42%

compound: CN(CCc1ccncc1)CC1CCCN1c1cccnn1 (stereo unspecified)
CoaBC: 3.916%
PfKRS1: -2.994%
LiHisRS: 11.5%

compound: O=C(CSC1CCc2ccccc2NC1=O)NCCc1ccco1 (stereo unspecified)
CoaBC: 7.018%
PfKRS1: -0.8626%
LiHisRS: 13.33%

compound: COCCC(=O)Nc1nccn1Cc1ccc(Br)cc1
CoaBC: 4.8%
PfKRS1: -1.512%
LiHisRS: 10.26%

compound: Cc1nc(NCc2cccnc2)cc(C2COCCN2)n1 (stereo unspecified)
CoaBC: 0.2421%
PfKRS1: 2.284%
LiHisRS: 12.59%

compound: CCn1ccnc1CN1CCCN(C(=O)c2cc[nH]n2)CC1
CoaBC: 2.046%
PfKRS1: 1.601%
LiHisRS: 7.339%

compound: CCNC(=O)N1CC(c2nc(Cc3ccccc3)no2)C1
CoaBC: -3.87%
PfKRS1: 4.374%
LiHisRS: 9.917%

compound: Cc1ccc(-c2ccnc(N(C)CC3CCCN3C)n2)c(C)n1 (stereo unspecified)
CoaBC: 7.407%
PfKRS1: 0.5163%
LiHisRS: 11.7%

compound: CCCN(CC)c1cc(C2CCNCC2)nc(C)n1
CoaBC: -16.69%
PfKRS1: 0.9726%
LiHisRS: 26.53%

compound: O=S(=O)(C1CC1)N1CCc2ncc(Cn3cccn3)n2CC1
CoaBC: -0.4167%
PfKRS1: 1.93%
LiHisRS: 23.08%

compound: O=S(=O)(Cc1ccccc1Cl)CC(O)CO (stereo unspecified)
CoaBC: -28.65%
PfKRS1: 2.807%
LiHisRS: 14.61%

compound: COc1ccccc1N1CCN(C(=O)Cn2nc(C)c(C)c2C)C(C)C1 (stereo unspecified)
CoaBC: 0.4132%
PfKRS1: 1.994%
LiHisRS: 20%

compound: Cc1cc(C)c(-n2cc(CCO)cn2)cc1C
CoaBC: 1.911%
PfKRS1: 8.277%
LiHisRS: 27.43%

compound: CN(C)CC1CN(C(=O)NCc2ccccc2)Cc2nccn2C1 (stereo unspecified)
CoaBC: 8.387%
PfKRS1: 4.859%
LiHisRS: 13.33%

compound: CNc1snc(C)c1C(=O)N1CCCC(n2ccnc2C)C1 (stereo unspecified)
CoaBC: 4.7%
PfKRS1: -0.275%
LiHisRS: 6.897%

compound: Cc1cc(NC(=O)NCc2cccnc2OC2CCCC2)n(C)n1
CoaBC: -1.908%
PfKRS1: 2.469%
LiHisRS: 9.565%

The last 2 entries again:

compound	CoaBC	PfKRS1	LiHisRS
CNc1snc(C)c1C(=O)N1CCCC(n2ccnc2C)C1 (stereo unspecified)	4.7%	-0.275%	6.897%
Cc1cc(NC(=O)NCc2cccnc2OC2CCCC2)n(C)n1	-1.908%	2.469%	9.565%